No constants are given. Whether binding was seen depends on the method and setting. Some results given as binding are weak or reduced against the parent protein; the word gives no strength.
Each binder was assayed against T1, HOCl modified CII (bovine, UniProt P02459 201-1214, modified with HOCl; residues not stated) (assay: phage ELISA screen; Antigen column of Table 3).
T1 construct: also called HOCl-CII; HOCl-Collagen II

Amino acid sequences for entries named in this document (tags omitted). Residues count along the entry.
UniProt P02459, residues 201-1214: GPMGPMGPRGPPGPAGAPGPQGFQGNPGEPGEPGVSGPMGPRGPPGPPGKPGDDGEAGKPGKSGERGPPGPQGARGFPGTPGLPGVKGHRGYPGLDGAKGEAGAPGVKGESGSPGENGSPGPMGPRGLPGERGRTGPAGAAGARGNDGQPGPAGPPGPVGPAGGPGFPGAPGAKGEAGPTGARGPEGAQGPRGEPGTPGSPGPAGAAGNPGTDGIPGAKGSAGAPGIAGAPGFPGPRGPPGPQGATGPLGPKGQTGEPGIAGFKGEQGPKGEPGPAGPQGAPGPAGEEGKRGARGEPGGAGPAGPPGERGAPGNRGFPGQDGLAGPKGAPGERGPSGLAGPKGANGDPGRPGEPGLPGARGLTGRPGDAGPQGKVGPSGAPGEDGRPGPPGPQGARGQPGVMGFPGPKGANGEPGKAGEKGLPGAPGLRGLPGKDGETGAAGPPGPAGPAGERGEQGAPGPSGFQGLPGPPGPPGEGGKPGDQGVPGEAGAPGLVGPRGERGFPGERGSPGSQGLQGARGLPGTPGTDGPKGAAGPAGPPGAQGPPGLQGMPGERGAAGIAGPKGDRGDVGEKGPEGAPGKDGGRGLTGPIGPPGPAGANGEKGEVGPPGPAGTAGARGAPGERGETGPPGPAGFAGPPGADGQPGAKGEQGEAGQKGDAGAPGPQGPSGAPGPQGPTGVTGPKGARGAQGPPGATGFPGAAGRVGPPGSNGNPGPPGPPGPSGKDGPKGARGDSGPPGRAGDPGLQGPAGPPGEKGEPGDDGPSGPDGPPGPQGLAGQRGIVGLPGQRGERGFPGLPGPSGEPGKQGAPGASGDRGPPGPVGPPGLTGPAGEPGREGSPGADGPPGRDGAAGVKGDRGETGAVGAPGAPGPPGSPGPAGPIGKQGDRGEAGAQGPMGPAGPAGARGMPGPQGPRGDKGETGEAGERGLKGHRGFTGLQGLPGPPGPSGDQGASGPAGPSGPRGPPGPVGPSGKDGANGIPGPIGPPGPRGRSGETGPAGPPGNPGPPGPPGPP

Binder	binding
scFv 6-9A (scFv) scFv: EVQLLESGGGLVQPGGSLRLSCAASGFTFSSYAMSWVRQAPGKGLEWVSNIATDGTTTYYADSVKGRFTISRDNSKNTLYLQMNSLRAEDTAVYYCAKNSTYFDYWGQGTLVTVSSGGGGSGGGGSGGGGSTDIQMTQSPSSLSASVGDRVTITCRASQSISSYLNWYQQKPGKAPKLLIYSASTLQSGVPSRFSGSGSGTDFTLTISSLQPEDFATYYCQQAATSPTTFGQGTKVEIKR	binds
scFv 6-10H (scFv) scFv: EVQLLESGGGLVQPGGSLRLSCAASGFTFSSYAMSWVRQAPGKGLEWVSSISYTGDSTYYADSVKGRFTISRDNSKNTLYLQMNSLRAEDTAVYYCAKNYSAFDYWGQGTLVTVSSGGGGSGGGGSGGGGSTDIQMTQSPSSLSASVGDRVTITCRASQSISSYLNWYQQKPGKAPKLLIYYASYLQSGVPSRFSGSGSGTDFTLTISSLQPEDFATYYCQQADSTPTTFGQGTKVEIKR	binds
scFv 6-6E (scFv) scFv: EVQLLESGGGLVQPGGSLRLSCAASGFTFSSYAMSWVRQAPGKGLEWVSAISAAGTATAYADSVKGRFTISRDNSKNTLYLQMNSLRAEDTAVYYCAKGYDTFDYWGQGTLVTVSSGGGGSGGGGSGGGGSTDIQMTQSPSSLSASVGDRVTITCRASQSISSYLNWYQQKPGKAPKLLIYAASSLQSGVPSRFSGSGSGTDFTLTISSLQPEDFATYYCQQNYGYPNTFGQGTKVEIKR	binds
scFv 3-5G (scFv) scFv: EVQLLESGGGLVQPGGSLRLSCAASGFTFSSYAMSWVRQAPGKGLEWVSSIDSAGASTYYADSVKGRFTISRDNSKNTLYLQMNSLRAEDTAVYYCAKNYSAFDYWGQGTLVTVSSGGGGSGGGGSGGGGSTDIQMTQSPSSLSASVGDRVTITCRASQSISSYLNWYQQKPGKAPKLLIYNASSLQSGVPSRFSGSGSGTDFTLTISSLQPEDFATYYCQQSDTYPSTFGQGTKVEIKR	binds
scFv 3-4D (scFv) scFv: EVQLLESGGGLVQPGGSLRLSCAASGFTFSSYAMSWVRQAPGKGLEWVSSISYTGDSTYYADSVKGRFTISRDNSKNTLYLQMNSLRAEDTAVYYCAKNYSAFDYWGQGTLVTVSSGGGGSGGGGSGGGGSTDIQMTQSPSSLSASVGDRVTITCRASQSISSYLNWYQQKPGKAPKLLIYTASNLQSGVPSRFSGSGSGTDFTLTISSLQPEDFATYYCQQSYASPTTFGQGTKVEIKR	binds
scFv 6-4E (scFv) scFv: EVQLLESGGGLVQPGGSLRLSCAASGFTFSSYAMSWVRQAPGKGLEWVSSISYTGDSTYYADSVKGRFTISRDNSKNTLYLQMNSLRAEDTAVYYCAKNYSAFDYWGQGTLVTVSSGGGGSGGGGSGGGGSTDIQMTQSPSSLSASVGDRVTITCRASQSISSYLNWYQQKPGKAPKLLIYTASNLQSGVPSRFSGSGSGTDFTLTISSLQPEDFATYYCQQTGSYPTTFGQGTKVEIKR	binds
scFv 3-6B (scFv) scFv: EVQLLESGGGLVQPGGSLRLSCAASGFTFSSYAMSWVRQAPGKGLEWVSSINATGYGTYYADSVKGRFTISRDNSKNTLYLQMNSLRAEDTAVYYCAKNYSDFDYWGQGTLVTVSSGGGGSGGGGSGGGGSTDIQMTQSPSSLSASVGDRVTITCRASQSISSYLNWYQQKPGKAPKLLIYSASALQSGVPSRFSGSGSGTDFTLTISSLQPEDFATYYCQQGDSYPTTFGQGTKVEIKR	binds
scFv 3-6G (scFv) scFv: EVQLLESGGGLVQPGGSLRLSCAASGFTFSSYAMSWVRQAPGKGLEWVSSINSNGTDTYYADSVKGRFTISRDNSKNTLYLQMNSLRAEDTAVYYCAKNYSDFDYWGQGTLVTVSSGGGGSGGGGSGGGGSTDIQMTQSPSSLSASVGDRVTITCRASQSISSYLNWYQQKPGKAPKLLIYTASALQSGVPSRFSGSGSGTDFTLTISSLQPEDFATYYCQQGYGAPTTFGQGTKVEIKR	binds
scFv 3-12F (scFv) scFv: EVQLLESGGGLVQPGGSLRLSCAASGFTFSSYAMSWVRQAPGKGLEWVSSISTNGSSTYYADSVKGRFTISRDNSKNTLYLQMNSLRAEDTAVYYCAKNYSSFDYWGQGTLVTVSSGGGGSGGGGSGGGGSTDIQMTQSPSSLSASVGDRVTITCRASQSISSYLNWYQQKPGKAPKLLIYDASGLQSGVPSRFSGSGSGTDFTLTISSLQPEDFATYYCQQGDTSPTTFGQGTKVEIKR	binds
scFv 3-7B (scFv) scFv: EVQLLESGGGLVQPGGSLRLSCAASGFTFSSYAMSWVRQAPGKGLEWVSSINNYGSNTAYADSVKGRFTISRDNSKNTLYLQMNSLRAEDTAVYYCAKGYSSFDYWGQGTLVTVSSGGGGSGGGGSGGGGSTDIQMTQSPSSLSASVGDRVTITCRASQSISSYLNWYQQKPGKAPKLLIYAASYLQSGVPSRFSGSGSGTDFTLTISSLQPEDFATYYCQQTSSSPDTFGQGTKVEIKR	binds
scFv 3-2C (scFv) scFv: EVQLLESGGGLVQPGGSLRLSCAASGFTFSSYAMSWVRQAPGKGLEWVSSIDTTGTTTYFADSVKGRFTISRDNSKNTLYLQMNSLRAEDTAVYYCAKNYSSFDYWGQGTLVTVSSGGGGSGGGGSGGGGSTDIQMTQSPSSLSASVGDRVTITCRASQSISSYLNWYQQKPGKAPKLLIYSASYLQSGVPSRFSGSGSGTDFTLTISSLQPEDFATYYCQQGYSAPTTFGQGTKVEIKR	binds
scFv 6-10G (scFv) scFv: EVQLLESGGGLVQPGGSLRLSCAASGFTFSSYAMSWVRQAPGKGLEWVSSIDAGGNGTYYADSVKGRFTISRDNSKNTLYLQMNSLRAEDTAVYYCAKNYSSFDYWGQGTLVTVSSGGGGSGGGGSGGGGSTDIQMTQSPSSLSASVGDRVTITCRASQSISSYLNWYQQKPGKAPKLLIYTASNLQSGVPSRFSGSGSGTDFTLTISSLQPEDFATYYCQQNNYYPTTFGQGTKVEIKR	binds
scFv 6-7G (scFv) scFv: EVQLLESGGGLVQPGGSLRLSCAASGFTFSSYAMSWVRQAPGKGLEWVSSIATTGDNTYYADSVKGRFTISRDNSKNTLYLQMNSLRAEDTAVYYCAKNYSYFDYWGQGTLVTVSSGGGGSGGGGSGGGGSTDIQMTQSPSSLSASVGDRVTITCRASQSISSYLNWYQQKPGKAPKLLIYTASTLQSGVPSRFSGSGSGTDFTLTISSLQPEDFATYYCQQAAGNPTTFGQGTKVEIKR	binds
scFv 3-7H (scFv) scFv: EVQLLESGGGLVQPGGSLRLSCAASGFTFSSYAMSWVRQAPGKGLEWVSAINAYGGSTYYADSVKGRFTISRDNSKNTLYLQMNSLRAEDTAVYYCAKNYSYFDYWGQGTLVTVSSGGGGSGGGGSGGGGSTDIQMTQSPSSLSASVGDRVTITCRASQSISSYLNWYQQKPGKAPKLLIYAASSLQSGVPSRFSGSGSGTDFTLTISSLQPEDFATYYCQQGSDYPTTFGQGTKVEIKR	binds
scFv 6-3B (scFv) scFv: EVQLLESGGGLVQPGGSLRLSCAASGFTFSSYAMSWVRQAPGKGLEWVSSIATTGTSTTYADSVKGRFTISRDNSKNTLYLQMNSLRAEDTAVYYCAKNYSYFDYWGQGTLVTVSSGGGGSGGGGSGGGGSTDIQMTQSPSSLSASVGDRVTITCRASQSISSYLNWYQQKPGKAPKLLIYTASSLQSGVPSRFSGSGSGTDFTLTISSLQPEDFATYYCQQGSTAPTTFGQGTKVEIKR	binds

— US20160228570A1 (QUEEN MARY AND WESTFIELD COLLEGE, published 2016)
